{"source": "PubChem BioAssay AID624297", "about": "(National Center for Advancing Translational Sciences (NCATS), 2012)", "note": "The whole screen tested about 340,000 compounds, of which about 6,200 (1.8%) were called active. The inconclusive results got no clear call from the source; some entries with a clear call stand among them for comparison. Calls follow the shape of the dose curve; as a rule, active = well fitted activation curve with a large enough effect; inconclusive = small, poorly fitted or top-dose-only effect; inactive = no such curve, though single readings can be large or run the other way. Potencies of inconclusive entries are doubtful fits and often do not repeat. Potency is read from the fitted curve at half-maximal effect."}
{"assay": "A quantitative high throughput screen for small molecules that induce DNA re-replication in SW480 colon adenocarcinoma cells; also: nearly all actives have a fitted effect of over 55% in size; as to re-replication activation: % of control where 0% means no effect.", "details": "Hoechst DNA content imaging, 48 h; re-replication activation: at 46.1 µM (top of the series) unless noted", "method_in_brief": "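Hoechst fluorescence of nuclei (405 nm excitation, 500-530 nm emission) measured by plate-scanning imager after 48 hr compound exposure at 37 C; re-replication scored as increased number of nuclei with elevated intensity.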"}
{"smiles": "Cc1ccc(N=Nc2c(C)[nH]n(C(N)=S)c2=O)cc1C", "Potency": "inconclusive: 1.84 µM [activator, partial curve, poor fit]"}
{"smiles": "Cc1ccc(C(=O)Nc2cccc(C(=O)NCc3ccccc3)c2)o1", "Potency": "inconclusive: 7.08 µM [activator, partial curve, poor fit]"}
{"smiles": "CC(C)NC(=O)c1onc(CSc2nc3ccccc3[nH]2)c1C(=O)NC(C)C", "Potency": "inconclusive: 0.0052 µM [activator, full curve, poor fit]"}
{"smiles": "COc1ccccc1OCCn1c(=S)[nH]c2ccccc21", "Potency": "inconclusive: 32.6 µM [activator, single point]"}
{"smiles": "COc1ccc(S(=O)(=O)N(C)C)cc1NC(=O)Cc1c[nH]c2ccccc12", "Potency": "active: 3.66 µM"}
{"smiles": "O=C(OCC(=O)N1CCc2ccccc2C1)c1ccc(O)cc1", "Potency": "inactive"}
{"smiles": "CSc1nsc(SCC(=O)Nc2ccc(C(C)=O)cc2)n1", "Potency": "inconclusive: 32.6 µM [activator, partial curve, poor fit]"}
{"smiles": "Cn1nc(C(F)(F)F)c2cc(C(=O)Nc3ccc(F)c(Cl)c3)sc21", "Potency": "inconclusive: 29.1 µM [activator, single point]"}
{"smiles": "CC(C)Oc1ccc(CN2CCC(n3nccc3NC(=O)CCc3ccccc3)CC2)cc1", "Potency": "inconclusive: 11.6 µM [activator, partial curve, poor fit]"}
{"smiles": "CCC1CCCCN1CCCNC(=O)c1nn(C)c2c1CS(=O)(=O)c1ccccc1-2", "note": "(stereo not given)", "Potency": "inconclusive: 29.1 µM [activator, single point]"}
{"smiles": "CN1CCCN(Cc2ccccc2Br)CC1", "Potency": "inconclusive: 6.51 µM [activator, single point]"}
{"smiles": "Cc1c([N+](=O)[O-])c2ccc(O)cc2n1-c1ccccc1", "Potency": "inconclusive: 7.31 µM [activator, single point]"}
{"smiles": "Fc1cccc(Cc2noc(CN3CCC(c4ccncc4)CC3)n2)c1", "Potency": "inactive"}
{"smiles": "O=C(CSC1CS(=O)(=O)c2cc([N+](=O)[O-])ccc21)NNC(=O)c1ccccc1", "note": "(stereo not given)", "Potency": "active: 9.2 µM"}
{"smiles": "Nc1cc2c(cc1[N+](=O)[O-])OCCOCCOCCO2", "Potency": "inconclusive: 32.6 µM [activator, partial curve, poor fit]"}
{"smiles": "COc1ccc(C2=NN(C(=O)/C=C/c3ccccc3)C(c3ccccc3)C2)c(OC(C)=O)c1", "note": "(stereo not given)", "Potency": "inactive"}
{"smiles": "O=C(NNc1nc(-c2ccc(Cl)cc2)cs1)c1ccco1", "Potency": "inconclusive: 20.6 µM [activator, single point]"}
{"smiles": "Cc1cccc(N2CCN(CCCNC(=O)C3CCCN(c4ncnc5c4nc4n5CCCCC4)C3)CC2C)c1", "note": "(stereo not given)", "Potency": "inconclusive: 15.8 µM [activator, partial curve, poor fit]"}
{"smiles": "COc1ccc(C2CC(c3cccc(C(F)(F)F)c3)=NN2c2ccc(S(N)(=O)=O)cc2)cc1", "note": "(stereo not given)", "Potency": "inconclusive: 0.651 µM [activator, full curve, poor fit]"}
{"smiles": "COc1ccc(-c2cn3cc(C(F)(F)F)cc(Cl)c3n2)cc1", "Potency": "active: 18.4 µM"}
{"smiles": "O=C(CC(Nc1ccc(F)cc1)C(=O)OCC(=O)c1cccs1)c1ccccc1", "note": "(stereo not given)", "Potency": "inconclusive: 9.2 µM [activator, partial curve, poor fit]"}
{"smiles": "CCCCC(CC)CNC(=O)C(Cc1ccccc1)NS(=O)(=O)c1ccc2c(c1)CCC(=O)N2", "note": "(stereo not given)", "Potency": "inconclusive: 5.8 µM [activator, partial curve, poor fit]"}
{"smiles": "COC(=O)c1ccc(NC(=O)CSc2nnc(-c3ccccc3Br)n2-c2ccccc2)cc1", "Potency": "inconclusive: 1.84 µM [activator, full curve, poor fit]"}
{"smiles": "Cc1ccc(O)c(N=Nc2nccs2)c1", "Potency": "inactive"}
{"smiles": "CO/N=C/C(=N\\Nc1ccc(OC)cc1)C(=O)c1ccc(OC)cc1", "Potency": "inconclusive: 29.1 µM [activator, single point]"}
{"smiles": "NCCCn1c(C(=O)c2cc(Cl)c(N)c(Cl)c2)c2ccc([N+](=O)[O-])cc2[n+]1[O-]", "Potency": "active: 1.03 µM"}
{"smiles": "CCN(CC)c1ccc(NC(=O)/C=C/c2cc(Br)ccc2OC)cc1", "Potency": "inconclusive: 29.1 µM [activator, single point]"}
{"smiles": "CSc1ccc(CCNC(=O)C2CCCN(c3ncnc4c3nc3n4CCCCC3)C2)cc1", "note": "(stereo not given)", "Potency": "inconclusive: 4.47 µM [activator, full curve, poor fit]"}
{"smiles": "COc1ccc(C(CCN2CCOCC2)c2c(OC)cc(OC)c3c(-c4ccccc4)cc(=O)oc23)cc1", "note": "(stereo not given)", "Potency": "inconclusive: 0.013 µM [activator, full curve, poor fit]"}
{"smiles": "CCN(CC)CCN(C(=O)CCS(=O)(=O)c1ccccc1)c1nc2c(C)cc(C)cc2s1", "Potency": "inconclusive: 32.6 µM [activator, partial curve, poor fit]"}
{"smiles": "O=C(CCCN1CCN2CCCC2C1)c1ccc(F)cc1", "note": "(stereo not given)", "Potency": "inactive"}
{"smiles": "Cc1ccc(C)c(NC(=O)c2cc(S(=O)(=O)N3CCCCC3)ccc2N2CCOCC2)c1", "Potency": "inconclusive: 20.6 µM [activator, partial curve, poor fit]"}
{"smiles": "C=C(C)COc1ccc(-c2[nH]ncc2-c2ccccc2OC)c(O)c1", "Potency": "inconclusive: 23.1 µM [activator, single point]"}
{"smiles": "O=C(Cn1cnc([N+](=O)[O-])n1)N/N=C/c1cccc2ccccc12", "Potency": "inactive"}
{"smiles": "COc1ccc(NC(=S)NNC(=O)C2CC2c2ccc(C)cc2)cc1", "note": "(stereo not given)", "Potency": "active: 18.4 µM"}
{"smiles": "O=C(Nc1cccc(NC(=O)c2ccccc2Cl)c1)c1ccc(F)cc1", "Potency": "inconclusive: 29.1 µM [activator, single point]"}
{"smiles": "O=C1NC(=Nc2ccccc2Cl)SC1(CO)CO", "Potency": "inconclusive: 23.1 µM [activator, single point]"}
{"smiles": "CCOc1ccc(OCC)c(NC(=O)CSc2nc3cccnc3n2C)c1", "Potency": "inactive"}
{"smiles": "CCC1CSC(Nc2ccc(C(=O)/C=C/c3ccc(OC)c(OC)c3)cc2)=N1", "note": "(stereo not given)", "Potency": "inconclusive: 4.11 µM [activator, full curve, poor fit]"}
{"smiles": "Cc1ccc(N)cc1S(=O)(=O)N(C)C", "Potency": "inconclusive: 20.6 µM [activator, single point]"}
{"smiles": "CCOC(=O)C1=C(COC(=O)CCOc2ccc(C)cc2)NC(=O)NC1C", "note": "(stereo not given)", "Potency": "inconclusive: 9.2 µM [activator, partial curve, poor fit]"}
{"smiles": "CC(C)(C)c1ccc(S(=O)(=O)N(CCCN2CCOCC2)Cc2cccs2)cc1", "Potency": "inconclusive: 29.1 µM [activator, single point]"}
{"smiles": "CCCCC(=O)Nc1cccc(-c2nc3ncccc3o2)c1C", "re-replication activation": "inconclusive: 55.5% [activator]"}
{"smiles": "CC(C)N=C1NN=C(c2cccs2)CS1", "Potency": "inactive"}
{"smiles": "NC(=NCCc1ccc(Cl)cc1)NS(=O)(=O)c1ccccc1", "Potency": "inactive"}
{"smiles": "CC1Cc2ccccc2N1C(=O)C1CCCN(S(=O)(=O)c2cccc3cccnc23)C1", "note": "(stereo not given)", "Potency": "inconclusive: 18.4 µM [activator, single point]"}
{"smiles": "CCOC(=O)CCc1c(C)c(C#N)c2nc3ccccc3n2c1-n1cnc2ccccc21", "Potency": "inconclusive: 23.1 µM [activator, single point]"}
{"smiles": "CCc1cc(C(=O)NNC(=O)CCl)sc1C", "Potency": "inactive"}
{"smiles": "COc1ccc(NC(=O)CN(c2ccc(OC)cc2)S(=O)(=O)c2ccc(OC)c(OC)c2)cc1", "re-replication activation": "inconclusive: 22% [activator]"}
{"smiles": "CC1=C(C(=O)OC(C)C)C(c2ccsc2)NC(=O)N1C", "note": "(stereo not given)", "Potency": "inactive"}
{"smiles": "COc1cc(S(=O)(=O)Nc2ccc(C)cc2)ccc1N=Cc1c(C)c(C#N)c(=O)n(C)c1O", "Potency": "inconclusive: 20.6 µM [activator, single point]"}
{"smiles": "CS(=O)(=O)c1nc(-c2ccc(F)cc2)cc(C(F)(F)F)n1", "Potency": "inconclusive: 4.11 µM [activator, single point]"}
{"smiles": "CNC(=O)Nc1cc(C)nn1C", "Potency": "active: 23.1 µM"}
{"smiles": "Cc1ccc(-n2nnnc2SCC(=O)Nc2ccc3c(c2)COC3=O)cc1C", "Potency": "inactive"}
{"smiles": "N#CC1=C(N)Oc2cc(N)ccc2C1c1ccc(F)cc1F", "note": "(stereo not given)", "Potency": "active: 23.1 µM"}
{"smiles": "O=C(N/N=C/c1cccs1)c1cc(-c2ccncc2)nc2ccccc12", "re-replication activation": "inconclusive: 119% [activator]"}
{"smiles": "Cc1cc(C)c2cc(C#N)c(N3CCCN(C(=O)c4cnccn4)CC3)nc2c1", "Potency": "inactive"}
{"smiles": "CC(C)N(Cc1ccccc1)CC(O)COc1ccc(S(=O)(=O)N2CCOCC2)cc1Cl", "note": "(stereo not given)", "Potency": "inactive"}
{"smiles": "COC(=O)c1ccccc1NC(=S)NC(=O)COc1ccc(C)cc1", "Potency": "inconclusive: 4.11 µM [activator, single point]"}
{"smiles": "COC(=O)c1ccc(-c2ccc(OC)c([C@H]3[C@H]4C=CC[C@@H](C)[C@@H]4C(=O)N3Cc3ccccc3)c2)cc1", "Potency": "inconclusive: 6.51 µM [activator, single point]"}
{"smiles": "COc1ccc(-c2cccc(NS(=O)(=O)c3ccccc3[N+](=O)[O-])c2)nn1", "Potency": "inconclusive: 29.1 µM [activator, partial curve, poor fit]"}
{"smiles": "C=CCN(c1ccc(C(=O)Nc2ccc(C)c(C)c2)cc1)S(C)(=O)=O", "Potency": "inactive"}
{"smiles": "O=C(c1ccc(CS(=O)c2ccccc2Cl)o1)N1CCN(c2ccccc2)CC1", "note": "(stereo not given)", "Potency": "active: 2.59 µM"}
{"smiles": "Cc1ccc(S(=O)(=O)Oc2cccc(/C=N/n3cnnc3)c2)cc1", "Potency": "inconclusive: 29.1 µM [activator, single point]"}
{"smiles": "C=CC(N)CCC(=O)O", "note": "(stereo not given)", "Potency": "inactive"}
{"smiles": "CC(C)CNC(=S)N1CCC(Cc2ccccc2)CC1", "Potency": "inactive"}
{"smiles": "CCOC(=O)C(NC(=O)NCc1ccccc1)(OCC)C(F)(F)F", "note": "(stereo not given)", "Potency": "inconclusive: 29.1 µM [activator, partial curve, poor fit]"}
{"smiles": "CCOc1ccc(NC(=S)Nc2ccc3nsnc3c2)cc1", "Potency": "active: 20.6 µM"}
{"smiles": "CCOC(=O)C1=C(N)Oc2cc(O)ccc2C1c1cccc(Cl)c1", "note": "(stereo not given)", "Potency": "inconclusive: 29.1 µM [activator, single point]"}
{"smiles": "Cc1ccc(OCC(=O)N(C)CC(=O)Nc2ccccc2Cl)c([N+](=O)[O-])n1", "Potency": "inactive"}
